The record followed here is paper PMC2680859.

Results are given in words; binding and its absence hold for the method and conditions named. Binding seen in cells or lysates may run through a third protein. A yes stands for co-enrichment or nearness to the bait. Other partners may have been found.

This test deals with HA-tagged Zn72D (Drosophila). The test can be described thus: affinity purification with mass spectrometry; large scale IP: 45 mg clarified S2 cell extract (cells expressing HA-Zn72D; wild-type S2 cells as control) on protein G Dynabeads with HA.11 antibody; lysis buffer 50 mM Tris pH 7.4, 150 mM NaCl, 1 mM EDTA, 0.1% TritonX-100; overnight at 4 degrees C; SDS-PAGE, in-gel digestion, LC-MS-MS.

B1: RpS3A (protein, UniProt P55830 1-268)
chain: MAVGKNKGLSKGGKKGGKKKVVDPFSRKDWYDVKAPNMFQTRQIGKTLVNRTQGQRIASDYLKGRVFEVSLADLQKDIDPERSFRKFRLIAEDVQDRNVLCNFHGMDLTTDKYRSMVKKWQTLIEAIVEAKTVDGYLLRVFCIGFTAKDQQSQRKTCYAQQSQVRKIRARMTDIITNEVSGADLKQLVNKLALDSIAKDIEKSCQRIYPLHDVYIRKVKVLKKPRFDVSKLLELHGDGGGKSVEAVVSSEGAVIDRPEGYEPPVQEAV
B1: the binding entry is listed as “binds”.

B2: Hrp59 (protein, UniProt Q9VHB6 1-327)
chain: MEMQLGAMLYVYKGEYGLPSIDFECLRALCLLRFTRCPMDVQTSSNPLRSGAGKLPYLQIGNQKFAGYRQIKRVLDLEGYPIDAHLSTKQKHLSTAYANWVFTNLHAYYHYFLFGEPHNFDTTTRGLYAKRTPFPFNFYYPSSYQREACDVVQVMAGFDVNDKLDKHEGDYLVVNAKKVVNLLSRKLGRKVWFFGDTYSEFDAIVYSYLAIIFKIALPNNPLQNHIKGCQNLVNFINRITKDIFRIEGYSSVKLTKTPSGTEASLTASERKFLDSELNTKIVAGVGAVLAMGAFAAWRGIYNQLTTRSSTDYDGIDYEDDEMEEGLD
For B2, the binding entry was “binds”.

B3: RpS4 (protein, UniProt P41042 1-261)
chain: MARGPKKHLKRLAAPKAWMLDKLGGVFAPRPSTGPHKLRESLPLLIFLRNRLKYALNGAEVTKIVMQRLVKVDGKVRTDPTYPAGYMDVITLEKTGEFFRLVYDVKGRFVIHRISAEEAKYKLCKVKKTQLGAKGVPFLVTHDGRTIRYPDPLIHANDSVQVDIASGKITDYIKFDSGNLCMITGGRNLGRVGTVVNRERHPGSFDIVHIKDSQGHVFATRLTNVFIIGKGNKPYISLPKGKGVKLSIAEERDKRLAAKTH
As to B3, the binding result is reported as “binds”.

B4: Argonaute 2 (protein, UniProt Q9VUQ5 1-1214)
chain: MGKKDKNKKGGQDSAAAPQPQQQQKQQQQRQQQPQQLQQPQQLQQPQQLQQPQQQQQQQPHQQQQQSSRQQPSTSSGGSRASGFQQGGQQQKSQDAEGWTAQKKQGKQQVQGWTKQGQQGGHQQGRQGQDGGYQQRPPGQQQGGHQQGRQGQEGGYQQRPPGQQQGGHQQGRQGQEGGYQQRPSGQQQGGHQQGRQGQEGGYQQRPPGQQQGGHQQGRQGQEGGYQQRPSGQQQGGHQQGRQGQEGGYQQRPPGQQQGGHQQGRQGQEGGYQQRPPGQQQGGHEQGRQGQEGGYQQRPSGQQQGGHQQGRQGQEGGYQQRPSGQQQGGHQQGRQGQEGGYQQRPSGQQQGGHQQGRQGQEGGYQQRPPGQQPNQTQSQGQYQSRGPPQQQQAAPLPLPPQPAGSIKRGTIGKPGQVGINYLDLDLSKMPSVAYHYDVKIMPERPKKFYRQAFEQFRVDQLGGAVLAYDGKASCYSVDKLPLNSQNPEVTVTDRNGRTLRYTIEIKETGDSTIDLKSLTTYMNDRIFDKPMRAMQCVEVVLASPCHNKAIRVGRSFFKMSDPNNRHELDDGYEALVGLYQAFMLGDRPFLNVDISHKSFPISMPMIEYLERFSLKAKINNTTNLDYSRRFLEPFLRGINVVYTPPQSFQSAPRVYRVNGLSRAPASSETFEHDGKKVTIASYFHSRNYPLKFPQLHCLNVGSSIKSILLPIELCSIEEGQALNRKDGATQVANMIKYAATSTNVRKRKIMNLLQYFQHNLDPTISRFGIRIANDFIVVSTRVLSPPQVEYHSKRFTMVKNGSWRMDGMKFLEPKPKAHKCAVLYCDPRSGRKMNYTQLNDFGNLIISQGKAVNISLDSDVTYRPFTDDERSLDTIFADLKRSQHDLAIVIIPQFRISYDTIKQKAELQHGILTQCIKQFTVERKCNNQTIGNILLKINSKLNGINHKIKDDPRLPMMKNTMYIGADVTHPSPDQREIPSVVGVAASHDPYGASYNMQYRLQRGALEEIEDMFSITLEHLRVYKEYRNAYPDHIIYYRDGVSDGQFPKIKNEELRCIKQACDKVGCKPKICCVIVVKRHHTRFFPSGDVTTSNKFNNVDPGTVVDRTIVHPNEMQFFMVSHQAIQGTAKPTRYNVIENTGNLDIDLLQQLTYNLCHMFPRCNRSVSYPAPAYLAHLVAARGRVYLTGTNRFLDLKKEYAKRTIVPEFMKKNPMYFV
In the case of B4, the binding result is “binds”.
